# The list shows a part of the results. The main result of the screen is listed elsewhere. These columns were measured beside it and carry no call. The list favours compounds with an active or inconclusive main result. The note in brackets gives the kind of curve behind each potency; many fits are weak.
# Assay: qHTS Assay to Find Inhibitors of Chronic Active B-Cell Receptor Signaling
# Settings: ABC-DLBCL IkBa-CBG/CBR reporter, luminescence ratio (green luciferase fused to IkBa over red control in TMD8 lymphoma cells), 4 h
# Procedure, shortened: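 Cell line TMD8 (human ABC DLBCL), stably expressing tet-inducible CBG68-IkBa fusion and CBR; IMDM/0.5% FBS; cpd up to 46 uM; dox induction, 4 h, 37C/5% CO2; dual luminescence; green/red ratio; MG132 control.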
# [1] = measured here: CBR red luminescence, cell number
# [2] = measured here: IkBa-CBG green luminescence
SMILES,AC50 [1],AC50 [2]
CCOC(=O)c1c(-c2ccccc2)nc2cc(C)ccn12,"17.8 µM [rising, partial curve, poor fit]",–
NS(=O)(=O)c1ccc2nc(NC(=O)c3ccc(Br)o3)sc2c1,"8.91 µM [falling, partial curve]",–
On1c2c(c3c4nonc4ccc31)CCCC2,–,"23.1 µM [rising, partial curve, poor fit]"
COc1ccc(NC(=O)COC(=O)c2ccc(C)c(S(=O)(=O)N3CCCCC3)c2)cc1,"0.00461 µM [rising, full curve, poor fit]",–
Cc1ccc(NC(=O)C2OCCc3ccccc32)cc1Cl (configuration not stated),"0.112 µM [rising, full curve, poor fit]",–
COc1ccc2nc(N(Cc3cccnc3)C(=O)Cc3ccccc3)sc2c1,"35.5 µM [falling, single point]",–
O=C(COc1ccccc1Cc1ccccc1)Nc1cccc(S(=O)(=O)N2CCOCC2)c1,"11.6 µM [falling, partial curve, poor fit]",–
CCOC(=O)N1CCC(NC(=O)c2cnn3c(C(F)(F)F)cc(-c4cccc(OC)c4)nc23)CC1,"11.2 µM [rising, partial curve, poor fit]",–
COCC(C)NC(=O)/C=C/c1ccc(OC)cc1 (configuration not stated),"25.1 µM [falling, single point]",–
O=C(N/N=C/c1cc([N+](=O)[O-])ccc1O)Nc1ccccc1,"4.47 µM [falling, partial curve, poor fit]",–
COc1ccc(S(=O)(=O)N(C)c2ccc(C(=O)NCc3ccco3)cc2)cc1OC,"3.55 µM [rising, full curve]",–
CCN(CC)c1ccc(NC(=O)c2ccc(NC(=O)C3CCCO3)cc2)c(C)c1 (configuration not stated),"20.6 µM [rising, single point]",–
CCOC(=O)c1nnn(-c2nonc2-n2cccc2)c1-c1cccc([N+](=O)[O-])c1,"35.5 µM [falling, single point]",–
CCCCN(CCCC)c1nc2ccccc2nc1NS(=O)(=O)c1ccc(NC(C)=O)cc1,"5.8 µM [rising, full curve, poor fit]",–
O=C(Nc1cc(C(F)(F)F)ccc1N1CCCC1)c1ccc2c(c1)OCO2,"6.51 µM [rising, partial curve]",–
COc1ccc(C(=O)O/N=C(/c2ccccc2)c2ccncc2)cc1OC,"11.2 µM [falling, partial curve]",–
NC(=O)COC(=O)c1ccccc1SCC(=O)NC1CCCCCC1,"15.8 µM [falling, partial curve, poor fit]",–
C=CCC[C@@H](Cc1ccc(F)cc1)C(=O)OC[C@H]1CCCN1C(=O)[C@@H](CC=C)CC(=O)N[C@H](CO)Cc1ccccc1,"18.4 µM [falling, partial curve, poor fit]",–
CCOc1ncccc1C(=O)OC(C)C(=O)NC(=O)NC1CCCCC1 (configuration not stated),"0.251 µM [falling, full curve, poor fit]",–
O=C(COC(=O)c1ccco1)NCc1ccc2c(c1)OCO2,"35.5 µM [rising, partial curve, poor fit]",–
COc1ccc(/C=C2\Oc3cc(OCC(=O)N4CCC[C@H]4CO)ccc3C2=O)c(OC)c1,"35.5 µM [falling, single point]",–

# 2 records picked at random from those above:
SMILES,AC50 [1],AC50 [2]
O=C(Nc1cc(C(F)(F)F)ccc1N1CCCC1)c1ccc2c(c1)OCO2,"6.51 µM [rising, partial curve]",–
O=C(COC(=O)c1ccco1)NCc1ccc2c(c1)OCO2,"35.5 µM [rising, partial curve, poor fit]",–

# Following part:

SMILES,AC50 [1],AC50 [2]
CCN1c2ccccc2-c2nc3ccccc3n2C1c1ccccn1 (configuration not stated),"20 µM [falling, partial curve, poor fit]",–
Cc1nn(-c2ccccc2)c(C)c1NC(=O)COC(=O)CCCOc1ccccc1,"4.61 µM [falling, partial curve, poor fit]",–
CN1CCN(C(=O)CN2C(=O)NC(C)(c3ccc4ccccc4c3)C2=O)CC1 (configuration not stated),"32.6 µM [rising, partial curve, poor fit]",–
COc1ccc(S(=O)(=O)N(C)C[C@H]2Oc3ccc(NC(=O)Nc4ccc5c(c4)OCO5)cc3CC(=O)N([C@@H](C)CO)C[C@@H]2C)cc1,"14.6 µM [rising, partial curve, poor fit]",–
Cc1ccc(C(=O)CSc2nn3c(=O)c(C(C)(C)C)nnc3s2)cc1,"22.4 µM [falling, single point]",–
COC(=O)c1ccc(-c2noc(CN3CCCC(CNC(C)=O)C3)n2)cc1 (configuration not stated),"6.31 µM [rising, partial curve, poor fit]",–
CC(C)COc1ccc(/C=C2/Sc3ccccc3C2=O)cc1,"3.16 µM [falling, partial curve, poor fit]",–
CCCn1c(SCC(=O)Nc2cccc(C(=O)OC)c2)nnc1-c1cccnc1,"8.2 µM [falling, partial curve]",–
CC(=O)N1CCN(C(=O)c2ccc(S(=O)(=O)Nc3ccccc3C)cc2)CC1,"18.4 µM [falling, partial curve, poor fit]",–
Cc1cccc(NC(=O)CSc2ncnc3sc(C)c(C)c23)n1,"10 µM [falling, partial curve, poor fit]",–
CCOc1ccc(-c2nnc3ccc(SCc4ccc(C(=O)OC)o4)nn23)cc1,"29.1 µM [falling, single point]",–
O=C(O)c1ccccc1C(=O)Nc1ccc(Oc2ccc3ccccc3c2)cc1,"7.94 µM [falling, partial curve, poor fit]",–
CCOC(=O)[C@H]1[C@H]2COc3ccccc3[C@@H]2N2C(=O)c3c(C)cc(C)cc3NC(=O)[C@@]12C,"2.31 µM [falling, full curve, poor fit]",–
BrC(/C=N/Nc1nc(N2CCOCC2)nc(N2CCOCC2)n1)=C/c1ccccc1,"10 µM [falling, partial curve]",–
Cc1cc(=O)c(C(=O)Nc2cccc(N3CCCC3=O)c2)nn1-c1ccccc1F,"5.17 µM [rising, full curve, poor fit]",–
CN1CCN(C(=S)NC(=O)c2ccco2)CC1,"1.58 µM [rising, partial curve, poor fit]",–
COc1ccc(S(=O)(=O)N(C)c2ccccc2)c2cccnc12,"11.2 µM [rising, partial curve, poor fit]",–
CCOc1ccc(C2c3cc(OC)c(OC)cc3CC(=O)N2c2ccccc2)cc1 (configuration not stated),"15.8 µM [rising, single point]",–
O=C1N(Cc2cccc(Cl)c2)C[C@@H]2C[C@@H](c3cccc4ncccc34)N3CCC[C@@]123,"6.31 µM [falling, full curve]",–
Cc1ccc(-c2ccc(SCC(=O)c3ccccc3)nn2)cc1,"29.1 µM [falling, partial curve, poor fit]",–
COC(=O)c1cc(OC)c(OC)cc1N=CC1=C(O)CC(C)(C)CC1=O,"1.12 µM [rising, full curve, poor fit]",–

SMILES,AC50 [1],AC50 [2]
COc1ccc(/C=N/NC(=O)c2cccnc2)cc1COc1ccc([N+](=O)[O-])cc1,"28.2 µM [falling, single point]",–
COc1cc(-c2nc(Cc3c(F)cccc3Cl)no2)cc(OC)c1OC,"0.316 µM [rising, full curve, poor fit]",–
O=C(O)c1ccc(N/N=C/C(Br)=C/c2ccccc2)cc1,"0.0891 µM [falling, full curve]",–
CCCCC1=NN(C(=O)c2cccnc2)C(O)(C(F)(F)F)C1 (configuration not stated),"11.2 µM [falling, partial curve]",–
COc1ccc(Cl)cc1NC(=S)NCCC(c1ccccc1)c1ccccc1,"13 µM [falling, partial curve]",–
O=C(CSc1nnc(-c2c[nH]c3ccccc23)o1)c1ccccc1,"0.316 µM [falling, full curve, poor fit]",–
CCOc1ccccc1-n1c(SCC(=O)N(C(C)C)C(C)C)nnc1-c1cccnc1,"29.1 µM [falling, single point]",–
Cc1[nH]c2ccccc2c1/C=N/Nc1ccc([N+](=O)[O-])cc1S(=O)(=O)Nc1ccc(Cl)cc1,"4.61 µM [falling, partial curve, poor fit]",–
CCCCOCCCNC(=O)c1c(-c2ccccc2)noc1C,"4.11 µM [falling, partial curve, poor fit]",–
CCc1ccc(S(=O)(=O)Nc2ccc(-c3ccc4nnc(C)n4n3)cc2)s1,"11.6 µM [rising, partial curve]","11.6 µM [falling, partial curve]"
CCN(CC)CCCNC(=O)c1nn(-c2ccccc2OC)c(=O)c2ccccc12,"29.1 µM [falling, single point]",–
O=C(Oc1cccc(NC2=NS(=O)(=O)c3ccccc32)c1)c1ccncc1,"15.8 µM [rising, single point]",–
COc1ccc(/C=C(\C#N)C(=O)c2cccn2C)cc1,"14.1 µM [falling, partial curve, poor fit]",–
O=C(CNC(=O)c1ccc(Br)cc1)N/N=C/c1ccc[nH]1,"25.9 µM [rising, single point]",–
Cc1c(C(=O)OC(C)C(=O)N(C)Cc2ccccc2)oc2ccccc12 (configuration not stated),"0.58 µM [rising, full curve, poor fit]",–
Cc1ccc(CNC(=O)CSCc2ccccc2)cc1,"0.708 µM [rising, full curve, poor fit]",–
CC(C)CNC(=S)N1CCC(c2nc(-c3ccc(F)cc3)no2)CC1,"35.5 µM [falling, single point]",–
N#Cc1c(/N=C/N2CCCC2)oc(-c2ccccc2)c1-c1ccccc1,"6.51 µM [rising, single point]",–
O=C(CSc1ccccn1)Nc1ccc(F)c([N+](=O)[O-])c1,"15.8 µM [falling, single point]",–

# Source: PubChem BioAssay AID493014 (National Center for Advancing Translational Sciences (NCATS), 2011)
